Measured values taken from PMC10959670.
No constants are given. Whether binding was seen depends on the method and setting. In cells and extracts the contact can be indirect. Some entries that bind do so weakly or less than the wild type.

Target: CLEC12A (human) (UniProt Q5QGZ9)
Experiment: split reporter; HEK293T cells co-transfected with pcDNA3.4-CLEC12A-VN173 and pcDNA3.4-CLEC12A-VC155; confocal microscopy 24 h after transfection

B1: CLEC12A (receptor, UniProt Q5QGZ9 1-265)
chain: MSEEVTYADLQFQNSSEMEKIPEIGKFGEKAPPAPSHVWRPAALFLTLLCLLLLIGLGVLASMFHVTLKIEMKKMNKLQNISEELQRNISLQLMSNMNISNKIRNLSTTLQTIATKLCRELYSKEQEHKCKPCPRRWIWHKDSCYFLSDDVQTWQESKMACAAQNASLLKINNKNALEFIKSQSRSYDYWLGLSPEEDSTRGMRVDNIINSSAWVIRNAPDLNNMYCGYINRLYVQYYHCTYKKRMICEKMANPVQLGSTYFREA
B1 was tested. Which binding did it give?
Its binding is “binds”.
